Measurements published in paper PMC12122562, “Phase 1 studies of the indenoisoquinolines LMP776 and LMP744 in patients with solid tumors and lymphomas” (Cancer Chemotherapy and Pharmacology, 2025).

Legend:
[1] = tested on: advanced, refractory solid tumors or lymphomas; experiment: Phase 1 trial of LMP744: tumor response (RECIST v1.1), cycles completed; type: in vivo, human; details: 28-day cycles
Procedure: (§1) Tumor responses were evaluated by serial CT scans according to RECIST v1.1 criteria. CT scans were performed every other cycle during the first year, then every 3 cycles after the first year. Toxicities associated with LMP776 were evaluated according to criteria specified in CTCAE version 4.0; toxicities associated with LMP744 were evaluated according to the criteria specified in CTCAE version 4.03 (on or before March 31, 2018) or version 5.0 (on or after April 1, 2018). Criteria for all versions can be found at https://ctep.cancer.gov/protocolDevelopment/electronic_applications/ctc.htm. Any patient who received a dose of either agent was considered eligible for toxicity evaluation.

[2] = tested on: advanced, refractory solid tumors or lymphomas; experiment: Phase 1 trial of LMP776: tumor response (RECIST v1.1), cycles completed; type: in vivo, human; details: 28-day cycles
Procedure: as §1

| Compound | Median cycles of treatment completed [1] | Range of cycles of treatment completed [1] | Median cycles of treatment completed [2] | Range of cycles of treatment completed [2] |
| --- | --- | --- | --- | --- |
| COc1cc2c3c(n(CCCNCCO)c(=O)c2cc1OC)-c1cc2c(cc1C3=O)OCO2 [LMP744] | 2 cycles | 1–31 cycles | – | – |
| COc1cc2c3c(n(CCCn4ccnc4)c(=O)c2cc1OC)-c1cc2c(cc1C3=O)OCO2 [LMP776] | – | – | 2 cycles | 1–9 cycles |

No dose or concentration is given here for some results.
